Reference: patent publication US9770045B2, “Preservation of animal feed and hydrolysis of polysaccharides using amino acids as salts or with acids” (priority 2015, dated 2017)

Conditions: percent weight lost, 0 to 72 hours

SMILES	Decomposition
NCC(=O)O [6M Glycine—HCl, glycine hydrochloride]	5.3%
Cl [6M HCl, hydrochloric acid]	45.1%

Where a name gives a salt, the structure may show the parent alone.
